Among the data in article PMC12518639, “Apomorphine is a novel necroptosis inhibitor targeting mixed lineage kinase domain-like protein oligomerization” (Cell Death Discovery, 2025) are activity values, retold here.

This test concerns THP-1-HMGB1-Lucia cells. The test can be described thus: TBZ-induced necroptosis screening by HMGB1-luciferase release. Format: cell-based. The settings on record: Homo sapiens; 20 μM compound with TBZ, 8 h; TBZ alone = 100, DPBS = 0; read-out: % Inhibition (luciferase activity relative to TBZ-treated supernatant). On the procedure: To identify potential inhibitors of the necroptosis pathway targeting MLKL or the process of p-MLKL pore formation on the membrane, we screened a library of 2150 compounds, including FDA-approved drugs and those in phase 1–3 clinical trials, using THP-1-HMGB1-Lucia™ cells expressing the HMGB1-luciferase fusion protein. The cells were treated with a necroptosis-inducing mixture containing TNF-α, BV6, and Z-VAD-FMK (TBZ) in addition to the compound library (Fig. 1A). The supernatants were harvested to measure luciferase activities for necroptosis. The luciferase activities of cell supernatants treated with TBZ alone were considered as the maximum release (100%) of HMGB1-luciferase. NEC-1, a known RIP1 inhibitor used in both humans and mice, was used as a positive control. […] Next, we performed a propidium iodide (PI) uptake assay to exclude cytotoxic compounds using THP-1 cells. […]
THP-1-HMGB1-Lucia^TM cells were pretreated with the pan-caspase inhibitor Z-VAD-FMK (50 μM, tlrl-vad, InvivoGen) and each chemical for 1 h, and followed by TNF-α (100 ng/mL, TNF0501, NKMAXBio, Seongnam, S. Korea) and Smac mimetic BV6 (10 μM, B1332-5, Biovision, Santa Clara, CA, USA), termed TBZ mixture, were added for necroptosis screening. […] The inhibition of necroptosis (%) was calculated as: (sample-treated data – medium-only data) × 100/(TBZ-treated data – medium-only data). […]

As to `Clc1ccc(CSC(Cn2ccnc2)c2ccc(Cl)cc2Cl)cc1` (centres unmarked) [S53, Exelderm], the activity at 20 µM was 8.7%. The figure for `Clc1ccc(CO/N=C(\Cn2ccnc2)c2ccc(Cl)cc2Cl)c(Cl)c1` [S67, Oxiconazole nitrate] is 7.1%.
